From the supplement of paper PMC11006884
The targets with a hit were mostly taken out for another list; the other results follow. The data scatter; read single values as rough. The entries are a selection whose mix differs from that of the whole data set.

By UniProt entry, the sequences of proteins in these tests, tags left out. Where a name states a change or a piece, a line headed by the entry shows the natural chain unless it says otherwise.
UniProt Q8NFI3: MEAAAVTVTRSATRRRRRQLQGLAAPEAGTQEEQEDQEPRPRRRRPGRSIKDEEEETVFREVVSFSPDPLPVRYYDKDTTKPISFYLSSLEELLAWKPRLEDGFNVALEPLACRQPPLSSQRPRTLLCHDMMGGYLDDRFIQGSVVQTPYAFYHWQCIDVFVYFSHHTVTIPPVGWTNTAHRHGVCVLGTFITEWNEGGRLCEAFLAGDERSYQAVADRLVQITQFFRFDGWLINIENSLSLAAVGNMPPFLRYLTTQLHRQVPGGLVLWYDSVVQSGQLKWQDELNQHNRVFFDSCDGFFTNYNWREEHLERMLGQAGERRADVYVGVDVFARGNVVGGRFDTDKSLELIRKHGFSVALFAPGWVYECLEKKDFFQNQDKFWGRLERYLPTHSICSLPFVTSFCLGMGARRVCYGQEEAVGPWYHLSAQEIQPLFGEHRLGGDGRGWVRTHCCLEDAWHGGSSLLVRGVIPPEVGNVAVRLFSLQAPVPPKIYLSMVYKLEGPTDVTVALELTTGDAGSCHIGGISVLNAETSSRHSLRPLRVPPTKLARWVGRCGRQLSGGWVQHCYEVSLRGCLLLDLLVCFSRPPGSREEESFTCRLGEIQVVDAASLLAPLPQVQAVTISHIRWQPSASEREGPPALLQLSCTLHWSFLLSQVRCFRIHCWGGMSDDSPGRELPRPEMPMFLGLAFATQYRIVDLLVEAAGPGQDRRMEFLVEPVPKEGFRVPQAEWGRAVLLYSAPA
UniProt Q8NDV7: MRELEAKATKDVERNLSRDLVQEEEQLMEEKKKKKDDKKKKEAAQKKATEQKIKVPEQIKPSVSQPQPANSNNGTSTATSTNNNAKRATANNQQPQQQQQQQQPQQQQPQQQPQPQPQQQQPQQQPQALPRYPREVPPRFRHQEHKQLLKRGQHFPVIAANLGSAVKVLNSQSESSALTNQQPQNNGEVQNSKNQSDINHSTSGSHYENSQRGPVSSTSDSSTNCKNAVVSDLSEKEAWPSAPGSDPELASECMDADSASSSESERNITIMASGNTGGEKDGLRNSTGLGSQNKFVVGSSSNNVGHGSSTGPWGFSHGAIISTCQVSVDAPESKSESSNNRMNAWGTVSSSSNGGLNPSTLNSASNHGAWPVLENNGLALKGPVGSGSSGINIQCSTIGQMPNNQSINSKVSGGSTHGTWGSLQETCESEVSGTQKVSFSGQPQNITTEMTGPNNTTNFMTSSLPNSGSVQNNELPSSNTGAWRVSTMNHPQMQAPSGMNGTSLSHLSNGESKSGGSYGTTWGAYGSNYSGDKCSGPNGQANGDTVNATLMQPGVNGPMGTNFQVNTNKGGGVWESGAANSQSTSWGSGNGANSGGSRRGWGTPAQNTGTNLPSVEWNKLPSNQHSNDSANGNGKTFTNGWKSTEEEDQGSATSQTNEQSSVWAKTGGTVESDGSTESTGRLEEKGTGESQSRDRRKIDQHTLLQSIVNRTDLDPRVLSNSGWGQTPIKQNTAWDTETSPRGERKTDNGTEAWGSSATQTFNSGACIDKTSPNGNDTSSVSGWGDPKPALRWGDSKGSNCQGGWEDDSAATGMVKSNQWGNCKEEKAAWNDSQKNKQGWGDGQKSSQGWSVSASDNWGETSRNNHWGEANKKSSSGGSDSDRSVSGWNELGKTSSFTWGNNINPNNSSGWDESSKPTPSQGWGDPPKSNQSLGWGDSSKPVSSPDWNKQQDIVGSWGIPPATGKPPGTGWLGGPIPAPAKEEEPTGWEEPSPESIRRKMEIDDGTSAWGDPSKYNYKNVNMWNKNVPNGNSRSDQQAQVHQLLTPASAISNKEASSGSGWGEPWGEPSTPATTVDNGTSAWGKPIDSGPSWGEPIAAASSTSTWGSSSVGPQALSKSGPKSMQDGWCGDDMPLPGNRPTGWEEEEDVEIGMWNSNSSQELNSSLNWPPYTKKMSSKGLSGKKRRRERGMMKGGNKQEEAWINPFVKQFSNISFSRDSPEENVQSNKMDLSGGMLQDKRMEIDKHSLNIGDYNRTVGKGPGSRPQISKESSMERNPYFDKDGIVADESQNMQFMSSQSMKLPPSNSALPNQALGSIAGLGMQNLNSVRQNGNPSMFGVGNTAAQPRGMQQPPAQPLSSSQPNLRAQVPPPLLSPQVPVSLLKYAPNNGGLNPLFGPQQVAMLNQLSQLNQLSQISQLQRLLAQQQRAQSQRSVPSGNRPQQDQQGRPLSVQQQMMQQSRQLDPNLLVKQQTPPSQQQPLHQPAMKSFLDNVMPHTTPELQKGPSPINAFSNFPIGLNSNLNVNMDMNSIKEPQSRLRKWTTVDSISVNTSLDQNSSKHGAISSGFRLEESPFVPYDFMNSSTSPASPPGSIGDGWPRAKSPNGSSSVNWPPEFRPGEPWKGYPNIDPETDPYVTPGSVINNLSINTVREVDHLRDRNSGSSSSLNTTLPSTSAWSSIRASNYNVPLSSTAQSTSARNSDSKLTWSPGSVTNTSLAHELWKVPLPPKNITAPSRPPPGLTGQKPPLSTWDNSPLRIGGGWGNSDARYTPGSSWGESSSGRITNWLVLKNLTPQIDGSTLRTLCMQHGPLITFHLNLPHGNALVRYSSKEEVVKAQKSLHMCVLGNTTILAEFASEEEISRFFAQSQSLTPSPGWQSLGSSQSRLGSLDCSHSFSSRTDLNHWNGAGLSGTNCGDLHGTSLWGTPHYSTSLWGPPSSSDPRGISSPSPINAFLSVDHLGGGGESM
UniProt Q8N122, whole entry, looked up: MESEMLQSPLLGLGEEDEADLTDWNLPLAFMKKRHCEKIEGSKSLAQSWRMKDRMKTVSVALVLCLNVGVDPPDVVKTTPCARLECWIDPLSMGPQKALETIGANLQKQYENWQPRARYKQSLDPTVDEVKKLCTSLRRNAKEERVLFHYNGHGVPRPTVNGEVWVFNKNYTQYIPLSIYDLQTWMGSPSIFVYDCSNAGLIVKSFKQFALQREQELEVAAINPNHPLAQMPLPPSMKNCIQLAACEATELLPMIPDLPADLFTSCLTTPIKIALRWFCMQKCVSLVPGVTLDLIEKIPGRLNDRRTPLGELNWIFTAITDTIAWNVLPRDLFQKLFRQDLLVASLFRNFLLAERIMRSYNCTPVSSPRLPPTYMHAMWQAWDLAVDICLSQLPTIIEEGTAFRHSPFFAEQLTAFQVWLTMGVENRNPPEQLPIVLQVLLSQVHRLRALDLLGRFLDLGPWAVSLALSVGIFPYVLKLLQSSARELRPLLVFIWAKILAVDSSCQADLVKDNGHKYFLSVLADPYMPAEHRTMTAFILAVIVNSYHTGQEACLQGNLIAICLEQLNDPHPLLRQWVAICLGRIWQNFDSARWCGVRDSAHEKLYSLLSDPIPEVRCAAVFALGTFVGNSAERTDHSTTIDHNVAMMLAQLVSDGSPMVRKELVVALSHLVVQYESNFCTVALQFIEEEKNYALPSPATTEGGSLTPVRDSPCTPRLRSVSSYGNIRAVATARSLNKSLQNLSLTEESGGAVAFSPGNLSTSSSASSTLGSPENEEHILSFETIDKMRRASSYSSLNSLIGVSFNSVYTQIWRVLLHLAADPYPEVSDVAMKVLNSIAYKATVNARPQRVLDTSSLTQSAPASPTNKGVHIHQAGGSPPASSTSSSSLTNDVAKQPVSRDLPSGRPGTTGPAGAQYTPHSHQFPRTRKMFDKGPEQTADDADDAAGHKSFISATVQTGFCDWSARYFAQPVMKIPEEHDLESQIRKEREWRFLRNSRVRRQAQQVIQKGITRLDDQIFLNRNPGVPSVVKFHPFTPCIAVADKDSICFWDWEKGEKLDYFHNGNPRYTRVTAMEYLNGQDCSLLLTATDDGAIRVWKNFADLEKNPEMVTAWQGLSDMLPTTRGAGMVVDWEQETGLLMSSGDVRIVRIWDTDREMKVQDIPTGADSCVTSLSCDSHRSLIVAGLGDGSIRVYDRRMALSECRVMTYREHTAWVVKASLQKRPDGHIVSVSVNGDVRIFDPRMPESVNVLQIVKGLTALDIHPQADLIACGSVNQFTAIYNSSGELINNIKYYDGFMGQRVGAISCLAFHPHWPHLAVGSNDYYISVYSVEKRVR
UniProt Q8NCE2: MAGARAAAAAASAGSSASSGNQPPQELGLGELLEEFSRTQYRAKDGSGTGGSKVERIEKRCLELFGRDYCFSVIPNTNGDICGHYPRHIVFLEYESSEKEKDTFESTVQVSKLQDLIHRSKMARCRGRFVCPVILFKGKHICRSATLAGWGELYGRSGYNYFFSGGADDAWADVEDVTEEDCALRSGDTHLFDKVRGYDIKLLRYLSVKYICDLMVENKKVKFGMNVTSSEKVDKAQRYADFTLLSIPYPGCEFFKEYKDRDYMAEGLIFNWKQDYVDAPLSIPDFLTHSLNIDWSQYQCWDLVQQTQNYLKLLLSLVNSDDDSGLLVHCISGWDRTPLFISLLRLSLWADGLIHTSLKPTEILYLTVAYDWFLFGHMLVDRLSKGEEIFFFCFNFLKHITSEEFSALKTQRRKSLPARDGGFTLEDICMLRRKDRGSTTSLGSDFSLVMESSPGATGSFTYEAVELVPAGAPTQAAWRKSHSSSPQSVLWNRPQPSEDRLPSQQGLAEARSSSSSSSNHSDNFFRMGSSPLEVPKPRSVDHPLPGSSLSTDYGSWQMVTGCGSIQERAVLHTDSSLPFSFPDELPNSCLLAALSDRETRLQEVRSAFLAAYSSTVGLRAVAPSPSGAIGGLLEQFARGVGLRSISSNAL
UniProt Q8TD19: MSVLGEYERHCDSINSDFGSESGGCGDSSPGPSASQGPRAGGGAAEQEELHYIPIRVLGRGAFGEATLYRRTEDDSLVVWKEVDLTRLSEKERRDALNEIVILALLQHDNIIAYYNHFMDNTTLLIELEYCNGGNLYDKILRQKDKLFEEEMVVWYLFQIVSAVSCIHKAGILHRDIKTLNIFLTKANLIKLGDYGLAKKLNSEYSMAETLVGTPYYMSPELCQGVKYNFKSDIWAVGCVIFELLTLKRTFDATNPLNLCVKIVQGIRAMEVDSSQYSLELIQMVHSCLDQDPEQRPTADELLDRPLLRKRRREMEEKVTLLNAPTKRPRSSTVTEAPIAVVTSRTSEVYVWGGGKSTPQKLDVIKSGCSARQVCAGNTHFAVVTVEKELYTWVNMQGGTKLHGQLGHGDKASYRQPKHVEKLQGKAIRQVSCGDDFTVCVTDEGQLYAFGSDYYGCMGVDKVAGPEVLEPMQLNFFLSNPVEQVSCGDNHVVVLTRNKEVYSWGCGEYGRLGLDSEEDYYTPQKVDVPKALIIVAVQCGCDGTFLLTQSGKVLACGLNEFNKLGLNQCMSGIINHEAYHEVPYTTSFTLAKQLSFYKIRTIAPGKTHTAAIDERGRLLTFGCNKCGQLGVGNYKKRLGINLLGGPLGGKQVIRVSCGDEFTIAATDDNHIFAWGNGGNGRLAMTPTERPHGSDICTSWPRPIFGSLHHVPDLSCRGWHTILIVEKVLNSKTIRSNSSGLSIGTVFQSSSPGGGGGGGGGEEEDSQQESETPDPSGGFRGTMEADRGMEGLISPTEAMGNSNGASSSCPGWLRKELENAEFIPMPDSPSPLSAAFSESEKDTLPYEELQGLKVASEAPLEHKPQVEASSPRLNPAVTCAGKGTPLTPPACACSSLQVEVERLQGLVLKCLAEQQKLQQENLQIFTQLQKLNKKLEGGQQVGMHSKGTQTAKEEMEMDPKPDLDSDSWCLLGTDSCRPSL
UniProt Q8TB03: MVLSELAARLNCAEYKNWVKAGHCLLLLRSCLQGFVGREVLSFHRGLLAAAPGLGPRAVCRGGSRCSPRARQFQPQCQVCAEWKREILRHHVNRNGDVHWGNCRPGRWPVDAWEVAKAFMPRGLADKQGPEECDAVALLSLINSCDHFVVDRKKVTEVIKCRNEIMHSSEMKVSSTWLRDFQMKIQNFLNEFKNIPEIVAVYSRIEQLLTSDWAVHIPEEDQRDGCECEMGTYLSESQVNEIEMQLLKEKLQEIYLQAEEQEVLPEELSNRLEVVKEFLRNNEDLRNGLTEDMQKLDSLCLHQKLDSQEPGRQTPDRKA
UniProt Q8N1G4: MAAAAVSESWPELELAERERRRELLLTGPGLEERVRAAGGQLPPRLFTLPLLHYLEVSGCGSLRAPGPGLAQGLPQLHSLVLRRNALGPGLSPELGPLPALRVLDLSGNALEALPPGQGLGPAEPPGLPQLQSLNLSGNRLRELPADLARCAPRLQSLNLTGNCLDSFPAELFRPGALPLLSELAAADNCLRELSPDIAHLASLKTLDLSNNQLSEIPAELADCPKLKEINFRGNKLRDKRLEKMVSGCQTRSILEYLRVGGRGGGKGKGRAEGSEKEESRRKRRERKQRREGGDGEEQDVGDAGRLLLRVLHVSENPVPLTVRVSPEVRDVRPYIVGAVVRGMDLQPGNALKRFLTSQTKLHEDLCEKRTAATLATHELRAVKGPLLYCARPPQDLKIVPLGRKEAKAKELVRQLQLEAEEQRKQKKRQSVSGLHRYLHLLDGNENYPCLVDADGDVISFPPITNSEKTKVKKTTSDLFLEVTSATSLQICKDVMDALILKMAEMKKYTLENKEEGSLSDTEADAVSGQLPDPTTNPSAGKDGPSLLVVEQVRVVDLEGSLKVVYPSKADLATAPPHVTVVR

compound: COC(=O)/C=C/c1ccccc1 [methyl cinnamate]; assay: log2 ratio of iodoacetamide-alkyne labeling of the cysteine site, DMSO over compound (competition); higher = stronger covalent engagement of the cysteine by the compound, active = 1 or more; conditions: 500 µM; treatment time 1 h; system: HEK293T cell lysate
Summary of the method: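 HEK293T lysate at 2 mg/mL was treated with vehicle or electrophile (500 µM) for 1 h at ambient temperature, then labelled with iodoacetamide alkyne (1 h), clicked to sCIP-TMT reagents, pooled, digested with trypsin overnight at 37 °C, enriched on streptavidin and eluted with acid. Peptides were analysed by Orbitrap Eclipse LC-MS/MS with FAIMS and quantified in FragPipe, using duplicate channels and three replicates, with cysteines quantified in only one replicate excluded. The log2 competition ratio for each cysteine is the mean control-channel reporter intensity divided by the mean compound-channel reporter intensity.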

log2 ratio of iodoacetamide-alkyne labeling, inactive:
PAF1 C36 (UniProt Q8N7H5) 0.0746
ENGASE C113 (UniProt Q8NFI3) -0.0431
UniProt Q8TEJ3_C103 0.318
MPP5 C490 (UniProt Q8N3R9) 0.0682
INTS1 C643 (UniProt Q8N201) 0.158
TRUB1 C307 (UniProt Q8WWH5) 0.134
TNRC6A C800 (UniProt Q8NDV7) 0.336
NKAP C349 (UniProt Q8N5F7) 0.0588
RPTOR C86 (UniProt Q8N122) 0.0547
MTMR14 C429 (UniProt Q8NCE2) 0.128
UniProt Q8NBU5_C310 -0.0517
UniProt Q8NBJ5_C203 0.269
ASCC3 C366 (UniProt Q8N3C0) 0.0966
GPT2 C158 (UniProt Q8TD30) 0.128
NEK9 C11 (UniProt Q8TD19) 0.406
CXorf38 C300 (UniProt Q8TB03) -0.000308
SPATA5 C318 (UniProt Q8NB90) 0.342
SPATA5 C81 (UniProt Q8NB90) 0.0532
TRUB1 C331 (UniProt Q8WWH5) 0.135
SCFD1 C485 (UniProt Q8WVM8) 0.165
NAT14 C108 (UniProt Q8WUY8) 0.276
EHBP1 C672 (UniProt Q8NDI1) 0.495
IPO4 C400 (UniProt Q8TEX9) 0.623
Q8V1_C158 0.469
UniProt Q8NHM5_C533 0.0746
PLA2G15 C355 (UniProt Q8NCC3) 0.205
PPP4R1 C645 (UniProt Q8TF05) 0.191
ALDH16A1 C472 (UniProt Q8IZ83) -0.0237
UniProt Q8N6R0_C391 -0.00813
DUSP19 C188 (UniProt Q8WTR2) 0.42
UniProt Q8NFC6_C2570 0.301
DDX54 C389 (UniProt Q8TDD1) -0.0673
DDX1 C231 (UniProt Q92499) 0.126
ZNF687 C91 (UniProt Q8N1G0) 0.202
UniProt Q8WZ64_C1635 0.297
GATAD2B C423 (UniProt Q8WXI9) 0.0732
LRRC47 C190 (UniProt Q8N1G4) -0.176

Two records drawn at random from the list so far, as already listed:
log2 ratio of iodoacetamide-alkyne labeling, inactive:
EHBP1 C672 (UniProt Q8NDI1) 0.495
UniProt Q8NBU5_C310 -0.0517
